# Measured values: the supplement of paper PMC8728848
# Some of the results follow.
# How the values were obtained:
# Assay in all cases: glycan array binding signal (z-score within array); higher = stronger binding
# Conditions in all cases: glycan notation: IUPAC condensed, linker removed
# [1] = molecular target: Gal(b1-4)GlcNAc(b1-3)Gal(b1-4)GlcNAc(b1-3)Gal(b1-4)GlcNAc(b1-3)Gal(b1-4)GlcNAc(b1-2)Man(a1-3)[Gal(b1-4)GlcNAc(b1-3)Gal(b1-4)GlcNAc(b1-3)Gal(b1-4)GlcNAc(b1-3)Gal(b1-4)GlcNAc(b1-2)Man(a1-6)]Man(b1-4)GlcNAc(b1-4)[Fuc(a1-6)]GlcNAc
# In short: (§1)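 The binding signal is a Z-score computed within each array and averaged over linkers. Arrays of the same protein sequence at different concentrations or buffers were also averaged together. Data originate from 3228 arrays in the Consortium for Functional Glycomics database, kept only where the protein sequence was available.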
# [2] = molecular target: Gal(b1-4)GlcNAc(b1-3)Gal(b1-4)GlcNAc(b1-3)Gal(b1-4)GlcNAc(b1-3)Gal(b1-4)GlcNAc(b1-2)[Gal(b1-4)GlcNAc(b1-3)Gal(b1-4)GlcNAc(b1-3)Gal(b1-4)GlcNAc(b1-3)Gal(b1-4)GlcNAc(b1-6)]Man(a1-6)[Gal(b1-4)GlcNAc(b1-3)Gal(b1-4)GlcNAc(b1-3)Gal(b1-4)GlcNAc(b1-3)Gal(b1-4)GlcNAc(b1-2)Man(a1-3)]Man(b1-4)GlcNAc(b1-4)[Fuc(a1-6)]GlcNAc
# In short: as §1
# [3] = molecular target: Gal(b1-4)GlcNAc(b1-3)Gal(b1-4)GlcNAc(b1-3)Gal(b1-4)GlcNAc(b1-3)Gal(b1-4)GlcNAc(b1-3)Gal(b1-4)GlcNAc(b1-2)Man(a1-3)[Gal(b1-4)GlcNAc(b1-3)Gal(b1-4)GlcNAc(b1-3)Gal(b1-4)GlcNAc(b1-3)Gal(b1-4)GlcNAc(b1-3)Gal(b1-4)GlcNAc(b1-2)Man(a1-6)]Man(b1-4)GlcNAc(b1-4)GlcNAc
# In short: as §1
# [4] = molecular target: Gal(b1-4)GlcNAc(b1-3)Gal(b1-4)GlcNAc(b1-3)Gal(b1-4)GlcNAc(b1-3)Gal(b1-4)GlcNAc(b1-3)Gal(b1-4)GlcNAc(b1-2)Man(a1-3)[Gal(b1-4)GlcNAc(b1-3)Gal(b1-4)GlcNAc(b1-3)Gal(b1-4)GlcNAc(b1-3)Gal(b1-4)GlcNAc(b1-3)Gal(b1-4)GlcNAc(b1-2)Man(a1-6)]Man(b1-4)GlcNAc(b1-4)[Fuc(a1-6)]GlcNAc
# In short: as §1
# [5] = molecular target: Gal(b1-4)GlcNAc(b1-3)Gal(b1-4)GlcNAc(b1-3)Gal(b1-4)GlcNAc(b1-3)Gal(b1-4)GlcNAc(b1-3)Gal(b1-4)GlcNAc(b1-2)[Gal(b1-4)GlcNAc(b1-3)Gal(b1-4)GlcNAc(b1-3)Gal(b1-4)GlcNAc(b1-3)Gal(b1-4)GlcNAc(b1-3)Gal(b1-4)GlcNAc(b1-6)]Man(a1-6)[Gal(b1-4)GlcNAc(b1-3)Gal(b1-4)GlcNAc(b1-3)Gal(b1-4)GlcNAc(b1-3)Gal(b1-4)GlcNAc(b1-3)Gal(b1-4)GlcNAc(b1-2)Man(a1-3)]Man(b1-4)GlcNAc(b1-4)[Fuc(a1-6)]GlcNAc
# In short: as §1
# [6] = molecular target: Gal(b1-4)GlcNAc(b1-3)Gal(b1-4)GlcNAc(b1-3)Gal(b1-4)GlcNAc(b1-3)Gal(b1-4)GlcNAc(b1-3)Gal(b1-4)GlcNAc(b1-3)Gal(b1-4)GlcNAc(b1-2)Man(a1-3)[Gal(b1-4)GlcNAc(b1-3)Gal(b1-4)GlcNAc(b1-3)Gal(b1-4)GlcNAc(b1-3)Gal(b1-4)GlcNAc(b1-3)Gal(b1-4)GlcNAc(b1-3)Gal(b1-4)GlcNAc(b1-2)Man(a1-6)]Man(b1-4)GlcNAc(b1-4)GlcNAc
# In short: as §1
# [7] = molecular target: Gal(b1-4)GlcNAc(b1-3)Gal(b1-4)GlcNAc(b1-3)GalNAc
# In short: as §1
# [8] = molecular target: Gal(b1-4)GlcNAc(b1-3)Gal(b1-4)GlcNAc(b1-3)[Gal(b1-4)GlcNAc(b1-3)Gal(b1-4)GlcNAc(b1-6)]GalNAc
# In short: as §1
# [9] = molecular target: Gal(b1-4)GlcNAc(b1-3)Gal(b1-4)GlcNAc(b1-6)[Gal(b1-3)]GalNAc
# In short: as §1
# [10] = molecular target: Gal(b1-4)GlcNAc(b1-3)Gal(b1-4)[Fuc(a1-3)]GlcNAc(b1-3)Gal(b1-4)[Fuc(a1-3)]GlcNAc
# In short: as §1
# [11] = molecular target: Gal(b1-4)GlcNAc(b1-3)GalNAc
# In short: as §1
# [12] = molecular target: Gal(b1-4)GlcNAc(b1-3)[Fuc(a1-3)GlcNAc(b1-6)]Gal(b1-4)Glc
# In short: as §1
# [13] = molecular target: Gal(b1-4)GlcNAc(b1-3)[Gal(b1-4)GlcNAc(b1-6)]Gal(b1-4)GlcNAc
# In short: as §1
# [14] = molecular target: Gal(b1-4)GlcNAc(b1-3)[GlcNAc(b1-6)]Gal(b1-4)GlcNAc
# In short: as §1
# [15] = molecular target: Gal(b1-4)GlcNAc(b1-6)Gal(b1-4)GlcNAc
# In short: as §1
# [16] = molecular target: Gal(b1-4)GlcNAc(b1-6)GalNAc
# In short: as §1
# [17] = molecular target: Gal(b1-4)GlcNAc(b1-6)[Gal(b1-3)]GalNAc
# In short: as §1
# [18] = molecular target: Gal(b1-4)GlcNAc(b1-6)[Gal(b1-4)GlcNAc(b1-3)]GalNAc
# In short: as §1
# Gal(b1-4)GlcNAc6P = molecular target: Gal(b1-4)GlcNAc6P
# In short: as §1
# Gal(b1-6)Gal = molecular target: Gal(b1-6)Gal
# In short: as §1
# Gal3S(b1-3)GalNAc = molecular target: Gal3S(b1-3)GalNAc
# In short: as §1
# Gal3S(b1-3)GlcNAc = molecular target: Gal3S(b1-3)GlcNAc
# In short: as §1
# [19] = molecular target: Gal3S(b1-3)[Fuc(a1-4)]GlcNAc
# In short: as §1
binder,measurement,setting,value
RobpsCRA (Robinia pseudoacacia) (protein) IKGGYWYSGSGLAVSDINPSHFTHLFCAFADLDPNTNKLTISSSNAAAFSTFTQTVRAKNPSVKTLLSIGGGGGRALAAVFANMASQASRRKSFIDSSIQLARRNNFHGLDLDWEYPSSDIDKTNFASLIREWRAAVATESSTSGTPALLLSAAVGGSDQITPLKYYPGEAIANNLDWVNVMTYDLYTSDSYPTLTQPPAPLFYPRGIFSADEGITKWIQSGVPESKLALGLPFYGFKWRLSDPNNHGLFAPATQGLGAVKYKDIVNTGGQVEFDSTYVTNYCFKGTDWYGYDDTQSISAKVAYAKQRGLFGYFAWHIEQDSNWALS,glycan array binding signal (z-score),[1],-0.68
same,glycan array binding signal (z-score),[2],0.355
same,glycan array binding signal (z-score),[3],-0.025
same,glycan array binding signal (z-score),[4],0.466
same,glycan array binding signal (z-score),[5],0.64
same,glycan array binding signal (z-score),[6],2.18
same,glycan array binding signal (z-score),[7],0.592
same,glycan array binding signal (z-score),[8],0.145
same,glycan array binding signal (z-score),[9],-0.285
same,glycan array binding signal (z-score),[10],-0.287
same,glycan array binding signal (z-score),[11],0.32
same,glycan array binding signal (z-score),[12],-0.551
same,glycan array binding signal (z-score),[13],-0.121
same,glycan array binding signal (z-score),[14],-0.112
same,glycan array binding signal (z-score),[15],-0.681
same,glycan array binding signal (z-score),[16],-0.712
same,glycan array binding signal (z-score),[17],-0.171
same,glycan array binding signal (z-score),[18],-0.007
same,glycan array binding signal (z-score),Gal(b1-4)GlcNAc6P,-0.574
same,glycan array binding signal (z-score),Gal(b1-6)Gal,-0.367
same,glycan array binding signal (z-score),Gal3S(b1-3)GalNAc,-0.326
same,glycan array binding signal (z-score),Gal3S(b1-3)GlcNAc,0.79
same,glycan array binding signal (z-score),[19],0.013

# An excerpt of these results, bar-delimited:
binder | measurement | setting | value
RobpsCRA (Robinia pseudoacacia) (protein) IKGGYWYSGSGLAVSDINPSHFTHLFCAFADLDPNTNKLTISSSNAAAFSTFTQTVRAKNPSVKTLLSIGGGGGRALAAVFANMASQASRRKSFIDSSIQLARRNNFHGLDLDWEYPSSDIDKTNFASLIREWRAAVATESSTSGTPALLLSAAVGGSDQITPLKYYPGEAIANNLDWVNVMTYDLYTSDSYPTLTQPPAPLFYPRGIFSADEGITKWIQSGVPESKLALGLPFYGFKWRLSDPNNHGLFAPATQGLGAVKYKDIVNTGGQVEFDSTYVTNYCFKGTDWYGYDDTQSISAKVAYAKQRGLFGYFAWHIEQDSNWALS | glycan array binding signal (z-score) | [4] | 0.466
same | glycan array binding signal (z-score) | [5] | 0.64
